# Screening data, single-dose tests

The chains behind the UniProt entries cited, without tags or fusion partners. Residues count along the entry.
UniProt Q4DA54, 1-478: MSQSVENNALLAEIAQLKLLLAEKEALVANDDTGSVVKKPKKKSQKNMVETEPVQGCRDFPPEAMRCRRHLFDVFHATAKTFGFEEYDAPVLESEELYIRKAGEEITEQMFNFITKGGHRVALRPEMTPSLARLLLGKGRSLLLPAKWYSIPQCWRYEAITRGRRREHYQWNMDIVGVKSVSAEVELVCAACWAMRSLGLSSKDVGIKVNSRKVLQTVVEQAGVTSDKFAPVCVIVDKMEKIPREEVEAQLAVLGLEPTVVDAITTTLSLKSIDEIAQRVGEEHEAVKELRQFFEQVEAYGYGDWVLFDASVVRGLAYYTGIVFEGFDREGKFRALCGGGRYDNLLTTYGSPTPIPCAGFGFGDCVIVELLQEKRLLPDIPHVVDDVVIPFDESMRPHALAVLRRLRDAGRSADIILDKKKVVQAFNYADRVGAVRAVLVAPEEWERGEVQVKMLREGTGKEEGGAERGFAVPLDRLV

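Enzyme assay of histidyl-tRNA synthetase; the read-out is not stated. Target: Histidine-tRNA ligase, Trypanosoma cruzi CL Brener (UniProt Q4DA54). Tested at 30 µM. Direction is inferred from retests: higher values go with stronger inhibition. Of about 69,000 compounds tested this way, about 31 (0.045%) reached 50% or more in at least one test.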

The filed quantity is “Percent Effect” (%). How 0% and 100% were set is not recorded. Most values in the screen are low, and negative values occur. This is an unselected part of the compounds tested.

For CC(C)CN1CC2(CCN(C(=O)c3cnccn3)CC2)CC1=O the result was 10.98%.
For N#CCC1CC(c2ccc(F)cc2)=NO1 (stereo not given) the result was -0.4464%.
For Cc1sc(-c2ccco2)nc1C(=O)N(CC(N)=O)C1CCCC1 the result was 3.784%.
For c1cncc(O[C@H]2COCCN(C3CCC3)C2)c1 the result was 6.522%.
For CN(C)C(=O)CN1C[C@@H]2CC[C@H](C1)N(Cc1ccc3nsnc3c1)C2 the result was 2.041%.
For Cc1cnn(CC2CCN(c3cc(C(C)C)nc4ccnn34)CC2)c1 the result was 2.041%.
For CCc1nc(C)c(C(=O)NCCNc2ncccc2C#N)s1 the result was -0.8721%.
For COC[C@@H]1CCCN1C(=O)CCc1c(C)nn(C)c1C the result was 6.25%.
For CN1CCN(Cc2ccccc2CNC(=O)c2ccc(Br)cc2F)CC1 the result was 4.237%.
For COC(=O)c1cccc(CNC(=O)CCC(F)(F)F)c1 the result was 1.97%.
For CCCC(CNc1cc(C(C)C)nc2ccnn12)N(C)C (stereo not given) the result was -6.977%.
For CCn1ccc2ccc(CN3CCCC3c3nc(C(C)C)no3)cc21 (stereo not given) the result was 0%.
For Cc1nc2[nH]cnc(NCCN3CCOCC3)c-2n1 the result was 10.89%.
For CC(C)OCc1ccc(CNc2cncc(-n3cccn3)n2)cc1 the result was 10.29%.
For CS(=O)(=O)N1CCCCC1c1ccc(Nc2cnccn2)nc1 (stereo not given) the result was 0%.
For O=C1CCSCC(C(=O)N2CCOCC2)N1 (stereo not given) the result was 5.785%.
For CC(C)(O)CN1CCN(C(=O)c2cccn2Cc2cccnc2)CC1 the result was 1.667%.
For Cc1noc(C)c1-c1cccc(C2CCN(S(=O)(=O)N(C)C)CC2)n1 the result was 1.695%.
For CCN1CC2(CC1=O)CN(C(=O)c1ccsc1)CCN(C(=O)N(C)C)C2 (stereo not given) the result was 3.509%.
For Cc1cc(CN2CCc3nc(-c4ccncc4)nc(O)c3CC2)c(C)s1 the result was 8.462%.
For Cc1nn(C)cc1C1=NS(=O)(=O)N(C)C(C(=O)Nc2ccc(Cl)cc2)=C1 the result was 6.923%.
For O=C1C[C@H]2[C@H](CCN2C(=O)c2cc[nH]n2)N1Cc1cccnc1 the result was 4.854%.
For CCC(Nc1cccc(Oc2ccccn2)c1)C(N)=O (stereo not given) the result was -6.667%.
For CCOCC(O)CN1CCN(C(=O)c2ccc(C)nc2)CC1 (stereo not given) the result was 8.876%.
For COCCCN1CC2(CCCN(c3ncnc4[nH]cnc34)C2)CCC1=O (stereo not given) the result was -1.19%.
For Cc1ccc(CC(=O)N2Cc3nccn3CC(Cn3cccn3)C2)cc1 (stereo not given) the result was 2.479%.
For OCCNc1cc(N2CCC(n3cc(C4CCCC4)nn3)CC2)ncn1 the result was 4.04%.
For Cc1cnc(N2CCCC3(CCOCC3)C2)nc1 the result was 5.025%.
For CN1Cc2nnc(C3CCOCC3)n2C(Cc2c[nH]cn2)C1 (stereo not given) the result was 5.464%.
For C[S+](C)[c-]1c(=O)[nH]c(=O)n(CCc2ccc(F)cc2)c1=O the result was 6.25%.
For Cc1ccc(CN2CCN(C(=O)c3ccccc3O)C(C)C2=O)cc1 (stereo not given) the result was 9.231%.
For NC(=O)C1CN(C(=O)Cc2cccnc2)CCN(C2CCOCC2)C1 (stereo not given) the result was 6.667%.
For O=C(c1cc2c(F)cccc2[nH]1)N1CCCCC1Cn1cccn1 (stereo not given) the result was 4.611%.
For COCC1c2c(cnn2C)CCN1C(=O)c1cc(C)on1 (stereo not given) the result was 5.525%.
For Cn1cc(C#N)cc1C(=O)Nc1ccc(CN2CCOCC2)cn1 the result was 8.374%.
For CCc1nn(C)c(Cl)c1CN1C[C@H](NC(=O)CCO)[C@@H](C(C)C)C1 the result was 5.056%.
For Cc1cc(C(=O)NCc2cccnc2OC(C)C)no1 the result was 3.008%.
For c1cncc(O[C@@H]2CC[C@H]3[C@H]2OCCN3C2CCCC2)c1 the result was 4.386%.
For COc1cc(C(C)=O)ccc1SCC(=O)Nc1cc(C)n[nH]1 the result was 9.211%.
For O=S(=O)(c1cccs1)N1CC[C@H]2[C@H]1CCN2CC1CC1 the result was -2.913%.
For CCn1nc(C)c(C(=O)NCc2csc(C3CC3)n2)c1C the result was 7.772%.
For CCc1cc(N2CCC(NCc3ccc(C)o3)CC2)ncn1 the result was 11.44%.
For COc1ccccc1CN1CCN(CCN2CCOC2=O)CC1 the result was 5.319%.
For CNC(=O)CC1CC2(CCN(S(C)(=O)=O)CC2)c2ccccc21 (stereo not given) the result was 2.4%.
For COCC1CN(S(=O)(=O)c2cccs2)Cc2ncnn2C1 (stereo not given) the result was -7.216%.
For Cc1ccc(N2CCC3(CCN(Cc4ccccn4)CC3)CC2)nn1 the result was 1.149%.
For CCOC(=O)[C@H]1[C@@H](O)C(=O)N(C)C12CCN(C(=O)OC)CC2 the result was -1.156%.
For CN(C(=O)c1cccc2[nH]ncc12)C1CCN(c2ccccn2)CC1 the result was 1.887%.
For COc1ccc(C(NCc2cccc(C#N)c2)C2CC2)cc1 (stereo not given) the result was 4.741%.
For CCOC(C)c1nc(CNc2cccc(Cl)c2OC)cs1 (stereo not given) the result was 1.667%.
For c1ccc(OC2COC3(CCN(Cc4ccccn4)CC3)C2)cc1 (stereo not given) the result was 6.122%.
For CCS(=O)(=O)N1CCc2c(CN3CCOCC3)cncc2C1 the result was 6.667%.
For Cc1ccc(C(N)c2cccs2)cc1 (stereo not given) the result was 23.38%.
For Cn1nccc1CCC(=O)N1CCOC(c2cnccn2)C1 (stereo not given) the result was 5.97%.
For c1ccc(OCc2cscn2)c(CNC2CCc3ncnn3C2)c1 (stereo not given) the result was 4.399%.
For CCOC(=O)NC(CNC(=O)c1cn(C)cn1)CC(C)C (stereo not given) the result was -2.326%.
For Cc1nc(CNC(=O)NCC(F)(F)F)oc1C the result was 3.261%.

Measurements from “University of Dundee, Small-Polar-MMV Screening Library” (2021), ChEMBL document CHEMBL3988442.